Reference: patent US9617240B2 (TEIJIN PHARMA LIMITED, priority 2013, dated 2017)
Some results were stated once for a whole list of compounds, not compound by compound.

What was measured:
Blood uric acid levels = assay: Hypouricemic effect in normal mice; format: in vivo, Crlj:CD1-type male mice; settings: 6 hours after oral administration of 1 mg/kg
[1] = system: level of uric acid in the blood; assay: Hypouricemic effect in normal rats; format: in vivo, Sprague-Dawley male rats; settings: oral gavage, 10 mg/kg
Protocol: A test compound suspended in a 0.5% methylcellulose solution was administered to 8 to 9 week-old Sprague-Dawley male rats (Japan Charles River Co.) by oral gavage administration using a feeding needle. After the blood was collected from the tail vein at 6 hours and 24 hours after administration, the plasma was separated. The level of uric acid in the blood sample was measured by uricase method using an absorption spectrometer as well as a uric acid determination kit (L type Wako UA F: Wako Pure Chemical Industries, Ltd.). The percentage of hypouricemic effect was determined by the following expression: Percentage of hypouricemic effect (%)=(Level of uric acid of the control animal−Level of uric acid of the test compound-administered animal)×100/Level of uric acid of the control animal.

SMILES | Percentage of hypouricemic effect (Blood uric acid levels) | Percentage of hypouricemic effect ([1]; 6 hours after administration) | Percentage of hypouricemic effect ([1]; 24 hours after administration)
N#Cc1cc(-n2cc(C(=O)O)cn2)ncc1-c1ccccc1F [Compound 5, 1-[4-cyano-5-(2-fluorophenyl)pyridin-2-yl]-1H-pyrazole-4-carboxylic acid] | ≥ 70% |  | 
N#Cc1cc(-n2cc(C(=O)O)cn2)ncc1-c1ccsc1 [Compound 21, 1-[4-cyano-5-(thiophen-3-yl)pyridin-2-yl]-1H-pyrazole-4-carboxylic acid] | ≥ 70% |  | 
Cc1cccc(-c2cnc(-n3cc(C(=O)O)cn3)cc2C#N)c1 [Compound 10, 1-[4-cyano-5-(3-methylphenyl)pyridin-2-yl]-1H-pyrazole-4-carboxylic acid] | ≥ 70% |  | 
N#Cc1cc(-n2cc(C(=O)O)c(N)n2)ncc1-c1ccccc1F [Compound 98, 3-amino-1-[4-cyano-5-(2-fluorophenyl)pyridin-2-yl]-1H-pyrazole-4-carboxylic acid] |  | ≥ 50% | ≥ 50%
N#Cc1cc(-n2cc(C(=O)O)cn2)ncc1-c1ccccc1 [Compound 1, 1-(4-cyano-5-phenylpyridin-2-yl)-1H-pyrazole-4-carboxylic acid] | ≥ 70% |  | 
N#Cc1cc(-n2cc(C(=O)O)c(N)n2)ncc1-c1ccccc1 [Compound 97, 3-amino-1-(4-cyano-5-phenylpyridin-2-yl)-1H-pyrazole-4-carboxylic acid] |  | ≥ 50% | ≥ 50%
Cc1ccc(-c2cnc(-n3cc(C(=O)O)cn3)cc2C#N)cc1 [Compound 14, 1-[4-cyano-5-(4-methylphenyl)pyridin-2-yl]-1H-pyrazole-4-carboxylic acid] | ≥ 70% |  | 
COc1cccc(-c2cnc(-n3cc(C(=O)O)cn3)cc2C#N)c1F [Compound 19, 1-[4-cyano-5-(2-fluoro-3-methoxyphenyl)pyridin-2-yl]-1H-pyrazole-4-carboxylic acid] | ≥ 70% |  | 
Cc1ccc(-c2cnc(-n3cc(C(=O)O)cn3)cc2C#N)c(F)c1 [Compound 33, 1-[4-cyano-5-(2-fluoro-4-methylphenyl)pyridin-2-yl]-1H-pyrazole-4-carboxylic acid] | ≥ 70% |  | 
